Here are results for 10 molecules from US20210363269A1.

Test [1] has as its target T1, NOD mouse SIRP-α D1 domain (mouse (NOD strain)).
T1 sequence: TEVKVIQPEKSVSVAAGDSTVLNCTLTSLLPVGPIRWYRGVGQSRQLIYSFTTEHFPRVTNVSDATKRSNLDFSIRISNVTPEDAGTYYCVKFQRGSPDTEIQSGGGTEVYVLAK
In words: SPR.

The target is the same in test [2]. As to the kind of experiment: SPR, antibody immobilised on GLC chip. Background: SPR reads the build-up and loss of mass on a sensor chip optically.

Results are given in words; binding and its absence hold for the method and conditions named. Some binding calls cover weakened binding; strength is not graded here.

B1: AB25c (antibody, V domains shown)
VH: DVQLVESGGGVVRPGESLRLSCEASGFTFSSNAMSWVRQAPGKGLEWVAGISSGSDTYYGDSVKGRLTISRDNSKNILYLQMNSLTAEDTAVYYCARETWNHLFDYWGLGTLVTVSS
VL: ALTQPASVSANPGETVEITCSGGSYSSYYYAWYQQKSPGSAPVTLIYSDDKRPSNIPSRFSGSASGSTATLTITGVRAEDEAVYFCGGYDQSSYTNPFGAGTTLTVL
Regarding B1, the binding entry in test [1] is listed as “binds”.

B2: AB21c (antibody, V domains shown)
VH: DVQLVESGGGVVRPGESLRLSCAASGFTFSSNAMSWVRQAPGKGLEWLAGISAGGSDTYYPASVKGRFTISRDNSKNTLYLQMNTLTAEDTAVYYCARETWNHLFDYWGLGTLVTVSS
VL: ALTQPASVSANPGETVKIACSGGDYYSYYYGWYQQKAPGSALVTVIYSDDKRPSDIPSRFSGSASGSTATLTITGVRAEDEAVYYCGGYDYSTYANAFGAGTTLTVL
In the case of B2, the binding entry in test [1] is “binds”.

B3: AB66c (antibody, V domains shown)
VH: DVQLVESGGGVVRPGESLRLSCAASGFTFSSYAMSWVRQAPGKGLEWLAGISAGGSDTYYIDSVKGRFTISRDNPKNSLYLQMSSLTAEDTAVYYCARETWNHLFDYWGLGTLVTVSS
VL: ALTQPASVSANPGETVKITCSGGDYYSTYYAWYQQKSPGSAPVTVIHSDDKRPSDIPSRFSGSASGSAATLIITGVRVEDEAVYYCGGYDGRTYINTFGAGTTLTVL
B3: the binding result in test [1] is reported as “binds”.

B4: AB27c (antibody, V domains shown)
VH: DVQLVESGGGVVRPGESLRLSCAVSGFRFSSYAMSWVRQAPGKGLEWVSGISSGGDTYYVDSVKGRFTISRDNSKNTLYLQVNSLTAEDTAIYYCARETWNHLFDYWGLGTLVTVSS
VL: ALTQPASVSADLGETVKITCSGGDSSSHYYGWYQQKSPGSAPVTVIYSDDERPSDIPSRFSGSASGSTATLTITGVRVEDEAIYYCGAYDGSTYANTFGAGTTLTVL
As to B4, the binding result in test [1] was “binds”.

B5: 136 variant with S12T in an otherwise all mut light chain (antibody, human IgG1, V domains shown)
VH: EVQLVESGGGVVQPGRSLRLSCAASGFTFSSYDVNWVRQAPGKGLEWVSLISGSGEIIYYADSVKGRFTISRDNSKNTLYLQMNSLRAEDTAVYYCAKENNRYRFFDDWGQGTLVTVSS
VL: EIVLTQSPGTLTLSPGERATLSCRASQSVYTYLAWYQQKPGQAPRLLIYGASSRATGIPDRFSGSGSGTEFTLTISSLQSEDFAVYYCQQYYDRPPLTFGGGTKVEIK
With B5, in test [2], the binding result is given as “binds”.

B6: 136 mut/mut (antibody, human IgG1, V domains shown)
VH: EVQLVESGGGVVQPGRSLRLSCAASGFTFSSYDVNWVRQAPGKGLEWVSLISGSGEIIYYADSVKGRFTISRDNSKNTLYLQMNSLRAEDTAVYYCAKENNRYRFFDDWGQGTLVTVSS
VL: EIVLTQSPGTLSLSPGERATLSCRASQSVYTYLAWYQQKPGQAPRLLIYGASSRATGIPDRFSGSGSGTEFTLTISSLQSEDFAVYYCQQYYDRPPLTFGGGTKVEIK
For the molecule B6, the binding entry in test [2] is “binds”.

B7: 136 variant with S22T in an otherwise all mut light chain (antibody, human IgG1, V domains shown)
VH: EVQLVESGGGVVQPGRSLRLSCAASGFTFSSYDVNWVRQAPGKGLEWVSLISGSGEIIYYADSVKGRFTISRDNSKNTLYLQMNSLRAEDTAVYYCAKENNRYRFFDDWGQGTLVTVSS
VL: EIVLTQSPGTLSLSPGERATLTCRASQSVYTYLAWYQQKPGQAPRLLIYGASSRATGIPDRFSGSGSGTEFTLTISSLQSEDFAVYYCQQYYDRPPLTFGGGTKVEIK
For the molecule B7, the binding result in test [2] was “binds”.

B8: 136 variant with Q38E in an otherwise all mut light chain (antibody, human IgG1, V domains shown)
VH: EVQLVESGGGVVQPGRSLRLSCAASGFTFSSYDVNWVRQAPGKGLEWVSLISGSGEIIYYADSVKGRFTISRDNSKNTLYLQMNSLRAEDTAVYYCAKENNRYRFFDDWGQGTLVTVSS
VL: EIVLTQSPGTLSLSPGERATLSCRASQSVYTYLAWYQEKPGQAPRLLIYGASSRATGIPDRFSGSGSGTEFTLTISSLQSEDFAVYYCQQYYDRPPLTFGGGTKVEIK
Turning to B8, in test [2], the binding entry is listed as “binds”.

B9: 136 wt (VL)/mut (VH) (antibody, human IgG1, V domains shown)
VH: EVQLVESGGGVVQPGRSLRLSCAASGFTFSSYDVNWVRQAPGKGLEWVSLISGSGEIIYYADSVKGRFTISRDNSKNTLYLQMNSLRAEDTAVYYCAKENNRYRFFDDWGQGTLVTVSS
VL: ETVLTQSPGTLTLSPGERATLTCRASQSVYTYLAWYQEKPGQAPRLLIYGASSRATGIPDRFSGSGSGTEFTLTISSLQSEDFAVYYCQQYYDRPPLTFGGGTKVEIK
B9: in test [2], the binding result is on record as “binds”.

B10: 136 variant with I2T in an otherwise all mut light chain (antibody, human IgG1, V domains shown)
VH: EVQLVESGGGVVQPGRSLRLSCAASGFTFSSYDVNWVRQAPGKGLEWVSLISGSGEIIYYADSVKGRFTISRDNSKNTLYLQMNSLRAEDTAVYYCAKENNRYRFFDDWGQGTLVTVSS
VL: ETVLTQSPGTLSLSPGERATLSCRASQSVYTYLAWYQQKPGQAPRLLIYGASSRATGIPDRFSGSGSGTEFTLTISSLQSEDFAVYYCQQYYDRPPLTFGGGTKVEIK
Turning to B10, the binding entry in test [2] is reported as “binds”.
